PubChem BioAssay (EPA / NIEHS)
Only results without a clear call are listed here; the source files them as inconclusive. Rule for the calls: active = hit-call score of the fitted dose curve at least 0.9, where 1 is the maximum; inconclusive = response in the unintended direction; inactive = score below 0.9.

The chains behind the UniProt entries cited, without tags or fusion partners.
UniProt P10276, whole entry: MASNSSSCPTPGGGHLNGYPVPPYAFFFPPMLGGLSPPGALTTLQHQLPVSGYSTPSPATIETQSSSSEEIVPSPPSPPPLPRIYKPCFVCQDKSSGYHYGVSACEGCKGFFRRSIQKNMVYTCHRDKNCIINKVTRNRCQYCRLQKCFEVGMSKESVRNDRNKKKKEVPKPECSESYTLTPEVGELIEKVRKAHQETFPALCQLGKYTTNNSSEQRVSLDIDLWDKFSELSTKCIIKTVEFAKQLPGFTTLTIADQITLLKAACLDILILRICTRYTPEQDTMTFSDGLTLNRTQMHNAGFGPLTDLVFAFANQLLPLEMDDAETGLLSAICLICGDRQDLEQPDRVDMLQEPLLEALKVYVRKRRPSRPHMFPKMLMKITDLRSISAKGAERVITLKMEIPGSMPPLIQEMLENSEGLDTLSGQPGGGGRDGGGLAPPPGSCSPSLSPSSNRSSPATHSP
UniProt P13631, whole entry: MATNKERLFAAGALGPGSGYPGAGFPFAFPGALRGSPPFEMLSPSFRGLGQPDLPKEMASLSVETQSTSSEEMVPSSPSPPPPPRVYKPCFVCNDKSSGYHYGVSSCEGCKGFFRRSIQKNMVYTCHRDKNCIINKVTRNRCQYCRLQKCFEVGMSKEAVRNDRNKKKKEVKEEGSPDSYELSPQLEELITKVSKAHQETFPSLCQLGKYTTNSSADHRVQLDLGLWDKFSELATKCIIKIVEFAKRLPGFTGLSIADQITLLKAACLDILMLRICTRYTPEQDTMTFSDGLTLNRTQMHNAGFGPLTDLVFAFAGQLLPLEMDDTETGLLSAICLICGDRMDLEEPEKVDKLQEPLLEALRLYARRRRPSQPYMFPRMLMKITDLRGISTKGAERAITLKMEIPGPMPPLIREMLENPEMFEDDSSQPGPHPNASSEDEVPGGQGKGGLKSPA
UniProt P10827, whole entry: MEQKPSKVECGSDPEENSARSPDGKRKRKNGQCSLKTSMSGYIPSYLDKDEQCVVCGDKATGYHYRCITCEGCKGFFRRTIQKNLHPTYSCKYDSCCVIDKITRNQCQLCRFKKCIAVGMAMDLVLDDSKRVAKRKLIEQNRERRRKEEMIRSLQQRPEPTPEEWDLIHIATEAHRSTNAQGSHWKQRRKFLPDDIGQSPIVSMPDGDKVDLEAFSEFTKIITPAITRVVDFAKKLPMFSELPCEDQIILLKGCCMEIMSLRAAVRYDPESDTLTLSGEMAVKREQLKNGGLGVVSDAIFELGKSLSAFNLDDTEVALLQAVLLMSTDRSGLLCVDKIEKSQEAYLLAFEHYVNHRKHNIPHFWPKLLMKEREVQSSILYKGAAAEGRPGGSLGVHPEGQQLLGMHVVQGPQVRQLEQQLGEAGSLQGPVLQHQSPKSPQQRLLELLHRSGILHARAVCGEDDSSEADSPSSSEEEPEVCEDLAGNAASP
UniProt P43354, whole entry: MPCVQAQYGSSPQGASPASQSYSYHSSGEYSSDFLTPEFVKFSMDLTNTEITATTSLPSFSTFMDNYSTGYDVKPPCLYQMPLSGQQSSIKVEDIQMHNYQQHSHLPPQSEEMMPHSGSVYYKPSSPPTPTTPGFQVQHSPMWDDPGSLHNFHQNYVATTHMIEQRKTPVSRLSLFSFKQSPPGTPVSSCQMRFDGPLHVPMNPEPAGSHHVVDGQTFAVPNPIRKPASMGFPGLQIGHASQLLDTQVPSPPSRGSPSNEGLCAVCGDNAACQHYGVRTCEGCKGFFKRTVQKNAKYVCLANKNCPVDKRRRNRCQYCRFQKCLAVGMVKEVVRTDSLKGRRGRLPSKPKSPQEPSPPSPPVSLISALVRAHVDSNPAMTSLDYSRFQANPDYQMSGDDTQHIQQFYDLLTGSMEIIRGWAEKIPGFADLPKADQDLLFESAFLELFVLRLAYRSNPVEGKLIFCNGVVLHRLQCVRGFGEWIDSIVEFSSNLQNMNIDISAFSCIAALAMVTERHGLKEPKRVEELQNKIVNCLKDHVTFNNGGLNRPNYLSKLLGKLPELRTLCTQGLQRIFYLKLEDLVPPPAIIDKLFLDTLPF
UniProt P10275, whole entry: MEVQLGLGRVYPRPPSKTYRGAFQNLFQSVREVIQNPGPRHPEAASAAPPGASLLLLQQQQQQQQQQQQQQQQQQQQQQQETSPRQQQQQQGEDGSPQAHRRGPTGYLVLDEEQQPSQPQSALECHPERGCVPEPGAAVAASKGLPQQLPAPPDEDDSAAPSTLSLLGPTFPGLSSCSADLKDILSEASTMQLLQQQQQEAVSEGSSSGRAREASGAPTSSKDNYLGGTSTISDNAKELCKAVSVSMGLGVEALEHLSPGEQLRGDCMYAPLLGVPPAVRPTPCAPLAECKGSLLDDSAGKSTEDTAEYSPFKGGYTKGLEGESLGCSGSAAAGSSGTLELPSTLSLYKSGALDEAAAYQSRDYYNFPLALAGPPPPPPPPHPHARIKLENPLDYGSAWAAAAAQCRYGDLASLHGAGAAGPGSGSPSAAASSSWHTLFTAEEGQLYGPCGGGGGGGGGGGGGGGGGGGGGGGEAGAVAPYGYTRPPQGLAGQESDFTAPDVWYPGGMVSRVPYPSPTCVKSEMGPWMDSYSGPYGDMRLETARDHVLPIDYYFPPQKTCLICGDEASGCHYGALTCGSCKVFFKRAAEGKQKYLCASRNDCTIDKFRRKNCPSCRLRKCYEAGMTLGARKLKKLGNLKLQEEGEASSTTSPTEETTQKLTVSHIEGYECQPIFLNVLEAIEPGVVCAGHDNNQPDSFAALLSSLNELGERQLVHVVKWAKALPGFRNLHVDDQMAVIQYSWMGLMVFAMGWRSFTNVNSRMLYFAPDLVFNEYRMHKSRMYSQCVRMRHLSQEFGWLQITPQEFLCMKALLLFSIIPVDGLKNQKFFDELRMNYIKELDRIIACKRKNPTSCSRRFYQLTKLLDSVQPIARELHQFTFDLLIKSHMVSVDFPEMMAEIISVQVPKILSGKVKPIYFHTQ
UniProt P62508, whole entry: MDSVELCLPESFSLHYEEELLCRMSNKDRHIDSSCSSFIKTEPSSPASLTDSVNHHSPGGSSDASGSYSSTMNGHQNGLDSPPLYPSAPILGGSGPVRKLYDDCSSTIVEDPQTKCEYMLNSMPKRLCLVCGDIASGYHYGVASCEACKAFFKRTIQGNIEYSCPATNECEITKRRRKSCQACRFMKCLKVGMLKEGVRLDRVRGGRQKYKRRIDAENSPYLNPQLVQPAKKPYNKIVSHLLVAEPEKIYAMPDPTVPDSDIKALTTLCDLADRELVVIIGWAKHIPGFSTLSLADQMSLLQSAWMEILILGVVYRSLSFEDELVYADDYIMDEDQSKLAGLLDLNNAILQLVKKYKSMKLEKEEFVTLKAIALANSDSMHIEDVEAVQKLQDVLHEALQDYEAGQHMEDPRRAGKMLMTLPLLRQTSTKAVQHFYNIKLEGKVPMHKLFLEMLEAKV
UniProt Q13133, whole entry: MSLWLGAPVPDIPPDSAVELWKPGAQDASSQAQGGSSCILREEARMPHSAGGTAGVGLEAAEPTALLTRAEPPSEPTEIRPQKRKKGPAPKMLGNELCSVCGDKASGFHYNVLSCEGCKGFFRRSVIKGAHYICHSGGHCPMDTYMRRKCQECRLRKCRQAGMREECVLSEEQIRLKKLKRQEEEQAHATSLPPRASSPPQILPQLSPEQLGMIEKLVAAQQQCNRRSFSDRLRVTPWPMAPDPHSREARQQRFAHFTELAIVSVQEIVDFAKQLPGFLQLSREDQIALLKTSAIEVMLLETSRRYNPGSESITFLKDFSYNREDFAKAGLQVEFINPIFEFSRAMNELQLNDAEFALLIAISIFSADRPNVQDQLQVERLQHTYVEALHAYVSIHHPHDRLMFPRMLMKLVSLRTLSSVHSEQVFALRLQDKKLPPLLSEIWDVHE
UniProt P41235, whole entry: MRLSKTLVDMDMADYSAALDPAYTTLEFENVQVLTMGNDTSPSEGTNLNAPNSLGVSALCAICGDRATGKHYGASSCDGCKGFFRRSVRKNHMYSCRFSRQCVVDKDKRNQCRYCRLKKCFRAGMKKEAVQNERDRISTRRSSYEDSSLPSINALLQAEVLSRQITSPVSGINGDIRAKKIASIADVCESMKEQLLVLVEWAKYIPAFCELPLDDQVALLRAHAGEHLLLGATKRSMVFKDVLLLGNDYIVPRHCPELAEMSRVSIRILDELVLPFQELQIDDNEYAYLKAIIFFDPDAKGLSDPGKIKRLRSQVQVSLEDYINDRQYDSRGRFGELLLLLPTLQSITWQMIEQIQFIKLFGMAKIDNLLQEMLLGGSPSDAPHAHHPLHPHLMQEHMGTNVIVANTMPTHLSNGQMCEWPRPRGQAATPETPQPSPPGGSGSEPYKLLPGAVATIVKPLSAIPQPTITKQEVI
UniProt Q92753, whole entry: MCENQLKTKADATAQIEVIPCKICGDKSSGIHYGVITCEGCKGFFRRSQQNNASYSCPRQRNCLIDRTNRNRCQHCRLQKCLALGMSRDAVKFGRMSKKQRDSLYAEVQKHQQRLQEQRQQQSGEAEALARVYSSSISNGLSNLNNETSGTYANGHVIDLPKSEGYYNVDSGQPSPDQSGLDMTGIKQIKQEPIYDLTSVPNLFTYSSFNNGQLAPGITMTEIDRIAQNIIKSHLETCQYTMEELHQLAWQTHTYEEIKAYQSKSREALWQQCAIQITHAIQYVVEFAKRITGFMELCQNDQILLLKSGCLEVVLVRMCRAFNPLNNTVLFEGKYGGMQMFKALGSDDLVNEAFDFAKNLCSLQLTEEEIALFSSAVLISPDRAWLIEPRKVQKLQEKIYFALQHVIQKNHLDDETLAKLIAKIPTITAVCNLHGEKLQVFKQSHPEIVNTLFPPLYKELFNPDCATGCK
UniProt P19793, whole entry: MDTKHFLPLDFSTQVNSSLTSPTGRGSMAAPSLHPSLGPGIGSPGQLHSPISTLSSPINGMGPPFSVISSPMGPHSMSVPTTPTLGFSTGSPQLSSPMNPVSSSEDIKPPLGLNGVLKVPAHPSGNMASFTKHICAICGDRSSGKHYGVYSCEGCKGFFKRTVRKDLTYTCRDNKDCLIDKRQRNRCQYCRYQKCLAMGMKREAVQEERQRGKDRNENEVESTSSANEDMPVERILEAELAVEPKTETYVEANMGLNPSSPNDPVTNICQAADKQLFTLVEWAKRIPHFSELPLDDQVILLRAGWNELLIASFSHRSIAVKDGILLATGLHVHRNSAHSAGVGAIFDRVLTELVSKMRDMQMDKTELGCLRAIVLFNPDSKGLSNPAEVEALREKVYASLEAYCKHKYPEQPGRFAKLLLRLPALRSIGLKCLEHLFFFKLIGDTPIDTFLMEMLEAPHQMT
UniProt P28702, whole entry: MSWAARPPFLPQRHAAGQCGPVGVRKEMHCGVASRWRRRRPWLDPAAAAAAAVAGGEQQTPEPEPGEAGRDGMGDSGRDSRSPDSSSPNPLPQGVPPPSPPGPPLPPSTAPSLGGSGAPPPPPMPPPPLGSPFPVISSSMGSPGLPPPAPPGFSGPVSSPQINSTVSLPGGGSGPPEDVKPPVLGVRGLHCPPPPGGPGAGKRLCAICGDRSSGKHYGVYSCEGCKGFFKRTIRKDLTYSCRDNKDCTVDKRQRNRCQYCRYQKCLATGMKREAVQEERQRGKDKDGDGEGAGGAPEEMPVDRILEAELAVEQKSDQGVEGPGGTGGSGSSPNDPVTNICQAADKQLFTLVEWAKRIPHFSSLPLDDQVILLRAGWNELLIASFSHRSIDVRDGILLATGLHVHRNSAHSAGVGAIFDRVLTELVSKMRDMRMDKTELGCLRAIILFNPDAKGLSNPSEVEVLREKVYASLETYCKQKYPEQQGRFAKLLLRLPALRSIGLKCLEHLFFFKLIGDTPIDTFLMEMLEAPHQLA

Key:
[1] = ATG_M_19_TRANS: Attagene TRANS-FACTORIAL HepG2 Assay for M19 Transcription Factor (Internal Marker) (AID 2282974); conditions: HepG2 Attagene TRANS-FACTORIAL M19 internal marker reporter
How it was run: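 Background-control readout: after 24 h chemical exposure of transfected HepG2 carrying GAL4-driven reporter units, RNA was reverse-transcribed, amplified, fluorescently labeled and sized by capillary electrophoresis; gain-of-signal fit against DMSO.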

[2] = molecular target: Retinoic acid receptor alpha (Homo sapiens) (UniProt P10276); experiment: ATG_RARa_TRANS: Attagene TRANS-FACTORIAL HepG2 Assay for human Retinoic Acid Receptor alpha (RARa) (AID 2283005);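 for AC50: potency for increased reporter signal meaning RARa activation over DMSO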
How it was run: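 Reporter transcripts, measured by RT-PCR with fluorescent labeling and capillary electrophoresis after 24 h dosing, reflect activity of an exogenous human RARa–GAL4 fusion in transiently transfected HepG2. Fitted for increase relative to DMSO.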

[3] = molecular target: human Retinoic Acid Receptor gamma (RARg), RARG (gene 5916) (UniProt P13631); experiment: ATG_RARg_TRANS: Attagene TRANS-FACTORIAL HepG2 Assay for human Retinoic Acid Receptor gamma (RARg) (AID 2283009);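 note: AC50 is for reporter induction above DMSO meaning RARg activation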
How it was run: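 Transactivation of exogenous RARg-Gal4 fusion measured as reporter transcript induction after 24 h in transfected HepG2 cells. RNA reverse-transcribed, amplified, fluorescently labeled and resolved by capillary electrophoresis; increase relative to DMSO.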

[4] = molecular target: human Thyroid Receptor alpha (THRa1), THRA (gene 7067) (UniProt P10827); experiment: ATG_THRa1_TRANS: Attagene TRANS-FACTORIAL HepG2 Assay for human Thyroid Receptor alpha (THRa1) (AID 2283014)
How it was run: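 Reporter transcript induction, read by capillary electrophoresis of 6-FAM-labelled RT-PCR products, reflects activity of a transfected THRa1-Gal4 fusion in HepG2 liver cells. Cells were dosed for 24 h; activity was fitted in the positive direction against DMSO.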

[5] = molecular target: Nuclear receptor subfamily 4 group A member 2 (Homo sapiens) (UniProt P43354); experiment: ATG_NURR1_TRANS: Attagene TRANS-FACTORIAL HepG2 Assay for human Nuclear Receptor Related Protein 1 (NURR1) (AID 2282985); conditions: HepG2 Attagene TRANS reporter, mRNA readout
How it was run: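 Reporter transcript induction, measured by RT-PCR with fluorescent labelling, HpaI digestion and capillary electrophoresis, after 24 hr dosing of human HepG2 cells transiently expressing an exogenous NR-Gal4 fusion with GAL4-UAS-driven reporters; DMSO as baseline.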

[6] = molecular target: Androgen receptor (Homo sapiens) (UniProt P10275); experiment: ATG_AR_TRANS: Attagene TRANS-FACTORIAL HepG2 Assay for human Androgen Receptor (AR) (AID 2282973); conditions: HepG2 Attagene TRANS-FACTORIAL AR reporter transcription
How it was run: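 Steps: transfect HepG2 with multiple GAL4-UAS reporter transcription units (TRANS format, exogenous NR-Gal4 protein); dose 24 h; isolate RNA, reverse-transcribe, PCR-amplify, FAM-label, HpaI-digest; resolve by capillary electrophoresis. Positive direction vs DMSO.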

[7] = ATG_GAL4_TRANS: Attagene TRANS-FACTORIAL HepG2 Assay for GAL4 (Internal Marker) (AID 2282976); conditions: HepG2 Attagene TRANS GAL4 internal marker reporter
How it was run: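 First, HepG2 cells were transfected with reporter units under GAL4-UAS control. Next, they were treated with chemical for 24 h. Finally, RNA was reverse-transcribed, PCR-amplified, FAM-labelled and resolved by capillary electrophoresis, with induction scored against DMSO.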

[8] = molecular target: Estrogen-related receptor gamma (Homo sapiens) (UniProt P62508); experiment: ATG_ERRg_TRANS: Attagene TRANS-FACTORIAL HepG2 Assay for human Estrogen-Related Receptor gamma (ERRg) (AID 2282977); conditions: HepG2 Attagene TRANS reporter, ERRg transactivation;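 note: hits increase reporter signal over DMSO so potencies reflect activators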
How it was run: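 Exogenous NR-Gal4 chimera activity measured as reporter transcript induction after 24 h in transiently transfected HepG2 cells. RNA reverse-transcribed, PCR-amplified, 6-FAM-labelled and resolved by capillary electrophoresis; increase over DMSO baseline.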

[9] = molecular target: Oxysterols receptor LXR-alpha (Homo sapiens) (UniProt Q13133); experiment: ATG_LXRa_TRANS: Attagene TRANS-FACTORIAL HepG2 Assay for human Liver X Receptor alpha (LXRa) (AID 2282980); conditions: HepG2 Attagene TRANS reporter, LXRa transactivation
How it was run: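 Transfect HepG2 with GAL4-UAS multiplex reporter constructs (TRANS format, chimeric receptor-GAL4); treat 24 h; extract RNA, reverse-transcribe, PCR-amplify, FAM-label, HpaI-digest; resolve fragments by capillary electrophoresis. Upward response vs DMSO.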

[10] = molecular target: Hepatocyte nuclear factor 4-alpha (Homo sapiens) (UniProt P41235); experiment: ATG_HNF4a_TRANS: Attagene TRANS-FACTORIAL HepG2 Assay for human Hepatocyte Nuclear Factor 4 alpha (HNF4a) (AID 2282982); conditions: HepG2 HNF4a transactivation reporter, mRNA readout
How it was run: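 Activity of an exogenous HNF4a–Gal4 fusion scored as induced GAL4-UAS reporter transcripts after 24 h chemical exposure of transfected human HepG2 cells. Read-out via RT-PCR with 6-FAM labelling and capillary electrophoresis; rise over DMSO baseline.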

[11] = molecular target: human RAR-related Orphan Receptor beta (RORb), RORB (gene 6096) (UniProt Q92753); experiment: ATG_RORb_TRANS: Attagene TRANS-FACTORIAL HepG2 Assay for human RAR-related Orphan Receptor beta (RORb) (AID 2283010)
How it was run: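 Read-out is reporter mRNA induction, quantified by RT-PCR with fluorescent capillary electrophoresis, 24 h post-dose in transiently transfected HepG2 expressing exogenous NR-Gal4 chimera. Activity fitted upward versus DMSO.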

[12] = molecular target: Retinoic acid receptor RXR-alpha (Homo sapiens) (UniProt P19793); experiment: ATG_RXRa_TRANS: Attagene TRANS-FACTORIAL HepG2 Assay for human Retinoid X Receptor alpha (RXRa) (AID 2283012)
How it was run: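 TRANS format reporting activity of exogenous RXRa-Gal4 chimera in transiently transfected HepG2, 24 h exposure. Reporter transcripts quantified by RT-PCR with capillary electrophoresis, with gain of signal scored relative to DMSO.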

[13] = ATG_XTT_Cytotoxicity: Cytotoxicity Assessment in the Attagene TRANS-FACTORIAL HepG2 Assay (AID 2283584)
How it was run: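 Cells: human HepG2, transiently transfected with MRTU reporter constructs. Exposure 24 h. Readout: XTT, cell number. Baseline/neg ctrl DMSO; loss-of-signal scored.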

[14] = molecular target: human Retinoid X Receptor beta (RXRb), RXRB (gene 6257) (UniProt P28702); experiment: ATG_RXRb_TRANS: Attagene TRANS-FACTORIAL HepG2 Assay for human Retinoid X Receptor beta (RXRb) (AID 2283013)
How it was run: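 Readout is reporter transcript induction after 24 h dosing. It is measured by RT-PCR of total RNA followed by fluorescent capillary electrophoresis. HepG2 liver cells carry transfected multiple reporter units driven by an exogenous RXRb-Gal4 fusion; activity is relative to DMSO.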

Measured: AC50

Cc1ccc([N+](=O)[O-])c([N+](=O)[O-])c1
inconclusive: [1] 8.26 µM | [2] 50 µM | [3] 18.1 µM | [4] 8.05 µM

CN(C(=O)Cc1cccc2occc12)[C@H]1CC[C@@]2(CCCO2)C[C@@H]1N1CCCC1
inconclusive: [5]

CC(C)N(CCO)C(C)C
inconclusive: [6] 2.9 µM | [1] | [7] | [8] | [9] 19.8 µM | [10] | [5] 181 µM | [11] | [12] | [4] 26.5 µM | [13]

O=C(Cl)Oc1ccccc1
inconclusive: [1] | [5]

O=[p+]1oc2ccccc2c2ccccc21 (centres undefined)
inconclusive: [9] | [2]

O=[N+]([O-])c1ccc([N+](=O)[O-])cc1
inconclusive: [1] | [7] | [5] | [14]
